Where “and” joins values, the source holds several entries; their conditions need not be identical. Equal entries are not always repeated. Structures can show the parent of a compound that is named as a salt. ± gives the standard deviation of the averaged measurements. Some of the results follow. Repeats are few or missing, and single values can be far off.
Tested on: RAW 264.7
Assay: HMGB1-induced TNF-alpha production relative to HMGB1-stimulated control; higher = more TNF-alpha secretion (less inhibition)
Settings: stimulus: HMGB1 5 ug/ml, 18 h
[1] = compound concentration: 1 ug/ml

Structure (SMILES)	HMGB1-induced TNF-alpha production (compound concentration: 3 uM)	HMGB1-induced TNF-alpha production [1]
C[C@@H]1[C@H](O)[C@@H](C)/C=C/C=C/C=C/C=C/C=C/C=C/C=C/[C@H](O[C@@H]2O[C@H](C)[C@@H](O)[C@H](N)[C@@H]2O)C[C@@H]2O[C@](O)(C[C@@H](O)C[C@@H](O)[C@H](O)CC[C@@H](O)C[C@@H](O)CC(=O)O[C@H]1C)C[C@H](O)[C@H]2C(=O)O	110 ± 56%	
C[C@@H]1[C@H](O)[C@@H](C)/C=C/C=C/C=C/C=C/C=C/C=C/C=C/[C@H](O[C@@H]2O[C@H](C)[C@@H](O)[C@H](N)[C@@H]2O)C[C@@H]2O[C@](O)(C[C@@H](O)C[C@@H](O)[C@H](O)CC[C@@H](O)C[C@@H](O)CC(=O)O[C@H]1C)C[C@H](O)[C@H]2C(=O)O [Amphotericin B]	111%	
CCC(=O)Oc1cc2c(C)cc(=O)oc2cc1Cl		71.1%
CCOC(=O)C(C)(C)Oc1ccc(Cl)cc1	74.7%	
CCOC(=O)C(C)(C)Oc1ccc(Cl)cc1 [Clofibrate]	96.7 ± 11%	
c1cnc2c(c1)ccc1cccnc12 [1,10-Phenanthroline monohydrate]	115%	
CC(C)NC[C@H](O)COc1ccc(CC(N)=O)cc1 [S(-)-Atenolol]	104%	
CC(C)NC[C@H](O)COc1ccc(CC(N)=O)cc1 [(S)-(-)-Atenolol]	78.7%	
CCC(NC(C)C)C(O)c1ccc(O)c(O)c1 (stereo not given) [Isoetharine mesylate salt]	60.3%	
CCC(NC(C)C)C(O)c1ccc(O)c(O)c1 (stereo not given)	53.6%	
CCC(NC(C)C)C(O)c1ccc(O)c(O)c1 (stereo not given) [Isotharine mesylate]	52.3%	
CCC(Cc1c(I)cc(I)c(N)c1I)C(=O)O (stereo not given)	55.7%	
CCC(Cc1c(I)cc(I)c(N)c1I)C(=O)O (stereo not given) [Iopanoic acid]	130%	
CN1CCc2cccc3c2[C@H]1Cc1ccc(O)c(O)c1-3 [Apomorphine R (-)]	108%	
CN1CCc2cccc3c2[C@H]1Cc1ccc(O)c(O)c1-3 [R(-) Apomorphine hydrochloride hemihydrate]	78.4%	
CN1CCc2cccc3c2[C@H]1Cc1ccc(O)c(O)c1-3 [Apomorphine hydrochloride hemihydrate]	102%	
CN1CCc2cccc3c2[C@H]1Cc1ccc(O)c(O)c1-3	80.2%	
O=C1C=C2CC3(O)COc4c(ccc(O)c4O)C3=C2C=C1O (stereo not given) [Hematein]		99.6%
C[C@]12CC[C@@H]3c4ccc(O)cc4CC[C@H]3[C@@H]1CC[C@@H]2OC(=O)CCC1CCCC1 [beta-estradiol 17-cypionate]		66.3%
C[C@]12CC[C@@H]3c4ccc(O)cc4CC[C@H]3[C@@H]1CC[C@@H]2OC(=O)CCC1CCCC1	66.6%	
O=C1CC(c2ccc(O)cc2)Oc2ccccc21 (stereo not given) [4'-hydroxyflavanone]		66.4%

Structure (SMILES)	HMGB1-induced TNF-alpha production (compound concentration: 3 uM)	HMGB1-induced TNF-alpha production [1]
CN(C)CCOC(=O)COc1ccc(Cl)cc1 [Meclofenoxate hydrochloride]	100%	
CN(C)CCOC(=O)COc1ccc(Cl)cc1	87.2%	
CN(C)CCOC(=O)COc1ccc(Cl)cc1 [Centrophenoxine hydrochloride]	85.1%	
Brc1c(NC2=NCCN2)ccc2nccnc12	104%	
O=C(OCc1ccccc1)c1ccccc1	93.7%	
N#C/C(=C\c1ccc(O)c(O)c1)C(=O)NCCCNC(=O)/C(C#N)=C/c1ccc(O)c(O)c1 [Tyrphostin AG 537]	119%	
CCCc1nc(C(C)(C)O)c(C(=O)O)n1Cc1ccc(-c2ccccc2-c2nnn[nH]2)cc1 [Olmesartan]	99.5 ± 7.6%	
Cc1ccc2c(Cl)cc(Cl)c(O)c2n1	74.7%	
N=C(N)N/N=C/c1c(Cl)cccc1Cl [Guanabenz acetate]	82.1 ± 6.1%	
N=C(N)N/N=C/c1c(Cl)cccc1Cl [Guanabenz]	95.2%	
N=C(N)N/N=C/c1c(Cl)cccc1Cl	85%	
OC(CCN1CCCCC1)(c1ccccc1)C1CCCCC1 (stereo not given) [Trihexyphenidyl hydrochloride]	103%	
OC(CCN1CCCCC1)(c1ccccc1)C1CCCCC1 (stereo not given)	96.4%	
OC(CCN1CCCCC1)(c1ccccc1)C1CCCCC1 (stereo not given) [Trihexyphenidyl-D,L Hydrochloride]	96.4%	
CN(C)CC[C@@H](c1ccc(Cl)cc1)c1ccccn1	88.8% and 100%	
CN(CCOc1ccc(CC2SC(=O)NC2=O)cc1)c1ccccn1 (stereo not given) [Rosiglitazone]	92.3%	
CCC(=O)OCC(=O)[C@@]1(OC(=O)CC)[C@H](C)C[C@H]2[C@H]3[C@H]([C@@H](O)C[C@@]21C)[C@@]1(C)C=CC(=O)C=C1C[C@H]3Cl [Alclometasone dipropionate]	43%	
CO[C@@H]1[C@H](O)[C@@H](CO)O[C@H]1n1ccc(N)nc1=O [2'-O-Methylcytidine]		94.7%
O=C(CC(=O)c1ccccc1)c1ccccc1	101%	
C[C@H]1C[C@@H]2[C@H]([C@@H](O)C[C@@]3(C)[C@H]2CC[C@]3(O)C(=O)COC(=O)CCC(=O)O)[C@@]2(C)C=CC(=O)C=C12	40.5%	
Nc1cc(-c2ccncc2)c[nH]c1=O [Amrinone]	72.5%	

Structure (SMILES)	HMGB1-induced TNF-alpha production (compound concentration: 3 uM)	HMGB1-induced TNF-alpha production [1]
c1ccc2c(c1)CCCc1cc(NCCN3CCOCC3)nnc1-2	88.9%	
CC(N)C12CC3CC(CC(C3)C1)C2 (stereo not given)	89.5%	
CC(N)C12CC3CC(CC(C3)C1)C2 (stereo not given) [Rimantadine]	103 ± 20%	
COc1cccc(-c2cc(=O)c3c(O)cccc3o2)c1 [5-Hydroxy-3'-methoxyflavone]		89.1%
COC(=O)C(N)CS (stereo not given)	75.7%	
COc1ccc(-c2oc3ccccc3c(=O)c2O)cc1 [4'-Methoxyflavonol]		77.8%
CN(C)[C@@H]1C(O)=C(C(N)=O)C(=O)[C@@]2(O)C(O)=C3C(=O)c4c(O)ccc(Cl)c4[C@@H](O)[C@H]3C[C@@H]12	91.6%	
CN(C)[C@@H]1C(O)=C(C(N)=O)C(=O)[C@@]2(O)C(O)=C3C(=O)c4c(O)ccc(Cl)c4[C@@H](O)[C@H]3C[C@@H]12 [Demeclocycline hydrochloride]	89.2 ± 10%	
O=C(O)/C(=C\c1c(C(=O)O)[nH]c2cc(Cl)cc(Cl)c12)c1ccccc1	114%	
O=C1c2ccccc2S(=O)(=O)N1CCCCN1CCN(c2ncccn2)CC1 [Ipsapirone]	114%	
Cn1c([N+](=O)[O-])cnc1COC(N)=O [Ronidazole]	119%	
Cn1c([N+](=O)[O-])cnc1COC(N)=O	88.4%	
COC(=O)c1ccc(O)c2nc3c(C=O)c(O)cc(O)c3nc12 [Lomofungin]	93.9%	
NC(N)=O	80.9%	
C[C@@H]1C[C@@]2(O[C@H]2C)C(=O)O[C@@H]2CCN(C)C/C=C(/COC(=O)[C@]1(C)O)C2=O [Otosenine]		68.8%
COc1cccc2oc(-c3ccc(O)cc3)cc(=O)c12		53.7%
COc1ccc(C(=O)NCc2ccc(OCCN(C)C)cc2)cc1OC [Itopride]	91.2 ± 8.7%	
COc1ccc(C(=O)NCc2ccc(OCCN(C)C)cc2)cc1OC	122%	
N[C@@H](C(=O)N[C@@H]1C(=O)N2C(C(=O)O)=C(Cl)CS[C@H]12)c1ccccc1	97.8 ± 12%	
N[C@@H](C(=O)N[C@@H]1C(=O)N2C(C(=O)O)=C(Cl)CS[C@H]12)c1ccccc1 [Cefaclor]	79.9 ± 6.2%	55.8%
COc1ccc(-c2cc(C(F)F)nn2-c2ccc(S(N)(=O)=O)cc2)cc1F	89.6%	

Structure (SMILES)	HMGB1-induced TNF-alpha production (compound concentration: 3 uM)	HMGB1-induced TNF-alpha production [1]
CC(C)NC[C@H](O)c1ccc(O)c(O)c1 [R(-)-Isoproterenol (+)-bitartrate]	72.5%	
CC(Oc1ccccc1)C(=O)N[C@@H]1C(=O)N2[C@@H]1SC(C)(C)[C@@H]2C(=O)O (stereo not given in full)	91.1%	
CC(Oc1ccccc1)C(=O)N[C@@H]1C(=O)N2[C@@H]1SC(C)(C)[C@@H]2C(=O)O (stereo not given in full) [Phenethicillin potassium salt]	113%	
OC[C@H]1O[C@@H](O[C@@H]2[C@@H](CO)OC(O)(CO)[C@H]2O)[C@H](O)[C@@H](O)[C@H]1O (mixture of isomers)	104%	
OC[C@H]1O[C@@H](O[C@@H]2[C@@H](CO)OC(O)(CO)[C@H]2O)[C@H](O)[C@@H](O)[C@H]1O (mixture of isomers) [Lactulose]		68.7%
NCCS(=O)O [Hypotaurine]	85.6%	
CO/N=C(\C(=O)N[C@@H]1C(=O)N2C(C(=O)O)=C(C[N+]3(C)CCCC3)CS[C@H]12)c1csc(N)n1 [Cefepime hydrochloride]	114%	
CCOC(=O)[C@H](CCc1ccccc1)N[C@@H](C)C(=O)N1CCC[C@H]1C(=O)O [Enalapril maleate]	84.7%	
CCOC(=O)[C@H](CCc1ccccc1)N[C@@H](C)C(=O)N1CCC[C@H]1C(=O)O [Enalapril]	101%	
CCOC(=O)[C@H](CCc1ccccc1)N[C@@H](C)C(=O)N1CCC[C@H]1C(=O)O	82.5%	
O=C1CC2(CCCC2)CC(=O)N1CCNCC1COc2ccccc2O1 (stereo not given)	97.4%	
NC[C@@H]1O[C@H](c2ccccc2)Cc2c1ccc(O)c2O	101%	
Cn1nnnc1SCC1=C(C(=O)O)N2C(=O)[C@@H](NC(=O)[C@H](OC=O)c3ccccc3)[C@H]2SC1	89.1%	
C[C@]12CC[C@@H]3c4ccc(O)cc4CC[C@H]3[C@@H]1C[C@H](O)[C@@H]2O	87.3%	
NOCC(=O)O [O-(Carboxymethyl)hydroxylamine hemihydrochloride]	78.5%	
CC1=C(CC(=O)O)c2cc(F)ccc2/C1=C\c1ccc([S+](C)[O-])cc1 (stereo not given) [Sulindac]	98.7 ± 15%	
CC1=C(CC(=O)O)c2cc(F)ccc2/C1=C\c1ccc([S+](C)[O-])cc1 (stereo not given)	103%	
CC(Oc1c(Cl)cccc1Cl)C1=NCCN1 (stereo not given) [Lofexidine]	75.7 ± 14%	
CC(Oc1c(Cl)cccc1Cl)C1=NCCN1 (stereo not given)	102%	
CN(C)CCCO[C@@H]1[C@H]2OC(C)(C)O[C@H]2O[C@@H]1[C@H](O)CO	103%	
CN(C)CCCO[C@@H]1[C@H]2OC(C)(C)O[C@H]2O[C@@H]1[C@H](O)CO [Amiprilose hydrochloride]	99.1 ± 21%	

Random excerpt: 4 records from the list
Structure (SMILES)	HMGB1-induced TNF-alpha production (compound concentration: 3 uM)	HMGB1-induced TNF-alpha production [1]
CCOC(=O)[C@H](CCc1ccccc1)N[C@@H](C)C(=O)N1CCC[C@H]1C(=O)O	82.5%	
CC1=C(CC(=O)O)c2cc(F)ccc2/C1=C\c1ccc([S+](C)[O-])cc1 (stereo not given) [Sulindac]	98.7 ± 15%	
CN(C)CCCO[C@@H]1[C@H]2OC(C)(C)O[C@H]2O[C@@H]1[C@H](O)CO	103%	
CO/N=C(\C(=O)N[C@@H]1C(=O)N2C(C(=O)O)=C(C[N+]3(C)CCCC3)CS[C@H]12)c1csc(N)n1 [Cefepime hydrochloride]	114%	

Source: the supplement of paper PMC3682954
